Test results from PubChem BioAssay AID588497 (NMMLSC, 2011).
The campaign covered roughly 360,000 compounds. About 780 (0.22%) were called active. Inconclusive results, whose numbers are uncertain, are shown with a selection of clear calls. No stated cut-off is given here; in the data, active means inhibition above about 35% (passing the limit was not always enough); inconclusive means no clear call, values can overlap the other calls.

These compounds were tested on Botulinum neurotoxin type F light chain protease (Clostridium botulinum) (assay: BoNT/F light chain protease inhibitors, primary screen, biochemical, flow cytometry, MLPCN library (AID 588497; further: plate controls were buffer without enzyme for full effect and enzyme alone for no effect)). Conditions: Multiplex microsphere protease cleavage assay, at 10 µM, active compounds read high.

| Structure (SMILES) | inhibition |
| --- | --- |
| COc1cc(OC)c(S(=O)(=O)N2CCN(C(=O)c3ccco3)CC2)cc1NC(C)=O | inconclusive: 16.8% |
| C=CCN1C(=O)/C(=C2/Sc3ccc(OC)cc3N2CC)SC1=S | inconclusive: -2.7% |
| CC(C)(C)C(=O)Nc1cccc(-c2ncon2)c1 | inconclusive: 28.2% |
| COc1ccc(C(CC(=O)O)NC(C)=O)cc1OC (stereo not drawn) | inactive: -1.2% |
| CC(=O)COC(=O)C1=NN(c2ccccc2)C(=O)CC1 | inconclusive: 6.4% |
| Cc1cc(C)nc(SCC(=O)c2ccc(F)c(C)c2)n1 | inconclusive: -33.8% |
| CC(C)/C=N/Nc1nc2c(c(=O)n(C)c(=O)n2C)n1C | inconclusive: 26.3% |
| COc1ccc(OC)c(/C=C2\SC(=S)N(NS(=O)(=O)c3ccccc3)C2=O)c1 | inconclusive: -3.4% |
| C[n+]1ccccc1Nc1cc([N+](=O)[O-])ccc1N | inconclusive: 26.7% |
| CC(=O)c1nn(-c2ccccc2)cc1C(=O)c1cccc(Br)c1 | inactive: 2.1% |
| CC1=CC(=O)N(c2ccn(C)n2)C1=O | inactive: 3.9% |
| COc1ccc(/C=C/c2nnc(NC(C)=O)s2)cc1 | inconclusive: 30.1% |
| COc1ccc(NC(=O)CNc2cccc(C#N)c2)cc1Cl | inconclusive: -0.6% |
| O=C(Nc1ccccc1N1CCCCC1)c1cc(S(=O)(=O)N2CCOCC2)ccc1F | inactive: 10.1% |
| O=C(Nc1nnc(CCN2CCCCC2)s1)c1ccc(Cl)cc1Cl | inconclusive: 113% |
| CCn1c(SCC(=O)Nc2ccc(C)cc2)nc(O)cc1=O | active: 42.3% |
| Cc1nc2nc(C)c(CCC(=O)NC(C)c3ccc4c(c3)OCCO4)c(C)n2n1 (stereo not drawn) | inactive: -0.3% |
| COc1ccc2nc(NC(=O)c3ccc(F)cc3)sc2c1 | inconclusive: 11.2% |
| COC(=O)c1cnc(Nc2cccc(C(F)(F)F)c2)c([N+](=O)[O-])c1 | inconclusive: 49.2% |
| C=CCNC(=S)N1CCN(CCNC2=CC(=O)CC(C)(C)C2)CC1 | inconclusive: -0.7% |
| COCCNC(=S)N1CCC(Cc2ccccc2)CC1 | inactive: -0.5% |
| CC(C)(C)NC(=S)N/N=C\c1ccc(-c2ccc([N+](=O)[O-])cc2)o1 | inconclusive: -23.6% |
| O=C1c2ccccc2C(=O)c2[nH]c(=O)[nH]c21 | inconclusive: 1.2% |
| COc1ccc(-c2cc(-c3nnc(COC(=O)CC4CC5CCC4C5)o3)c3ccccc3n2)cc1OC (stereo not drawn) | inactive: 5% |

| Structure (SMILES) | inhibition |
| --- | --- |
| COc1cccc(/C=N/n2c(-c3cc(C)[nH]n3)n[nH]c2=S)c1OC | inconclusive: -7.7% |
| Cc1ccc(S(=O)(=O)N(C)CC(=O)N2CCCCCC2)cc1 | inconclusive: 19.3% |
| Cc1cc(-c2nc(C)c(C(=O)NNS(=O)(=O)c3cccc(C(F)(F)F)c3)s2)no1 | inconclusive: 10.2% |
| COc1ccc(OC)c(N(CC(=O)Nc2ccccc2F)S(=O)(=O)c2ccccc2)c1 | inconclusive: 43.6% |
| COc1ccc(N2CCN(CC(=O)c3c(C)n(C)c4ccc(OC)cc34)CC2)cc1 | inconclusive: -7.6% |
| Cc1cccc(NC(=O)c2cc(=O)n(Cc3ccccc3)c(=O)[nH]2)c1 | inactive: -2.8% |
| CN(C)S(=O)(=O)c1ccc(Cl)c(C(=O)NC2CCCCCCC2)c1 | inactive: 4% |
| Cc1cccc(NC(=S)NNC(=S)NCc2ccccc2)c1 | inactive: -1% |
| CC(C)(C)CC(=O)Nc1ccccc1N1CCN(c2ccc(F)cc2)CC1 | inconclusive: -48.5% |
| CC1(C)Cc2c(sc(NC(=O)COc3cccc4ccccc34)c2C#N)C(C)(C)N1 | inconclusive: -6.5% |
| CC(C)CNC(=S)N(CCO)Cc1cc2cc3c(cc2[nH]c1=O)OCO3 | inconclusive: 4.7% |
| O=C(Nc1cc(Cl)cc(Cl)c1)N1CCCC1 | inactive: -4.2% |
| CC(C)COc1ccc(C(=O)NC(Cc2c[nH]c3ccccc23)C(=O)NN)cc1 (stereo not drawn) | inconclusive: 38.2% |
| O=C(CN1C(=O)c2ccccc2C1=O)c1ccc(F)cc1 | inconclusive: -10.6% |
| COc1cc(OC)cc(C(=O)NCC2CCCN(Cc3cccc(C(C)=O)c3)C2)c1 (stereo not drawn) | inconclusive: -20.6% |
| O=c1oc2c3c4c(cc2c2c1CCC2)OCCN4CCC3 | inconclusive: -30% |
| Cc1cc(C)cc(OC(C)c2ccnc3nc(/N=C/N(C)C)nn23)c1 (stereo not drawn) | inactive: 3.8% |
| Cc1cccc(C)c1NC(=O)C1CC2CCC1C2 (stereo not drawn) | inconclusive: -30.8% |
| CN1C2=C(C(=O)CC(C)(C)C2)C(c2cccs2)C2=C1CC(C)(C)CC2=O | inconclusive: -15.2% |
| CC(=O)OC(C)=O | inactive: 0.8% |
| CCC(CC)C(=O)NC12CC3CC(CC(C3)C1)C2 | inconclusive: -43.4% |
| CCOCC(=O)Nc1nnc(COCC)s1 | inconclusive: 9% |
| CCOc1ccc(C2C3=C(CCCC3=O)OC(N)=C2[N+](=O)[O-])cc1 (stereo not drawn) | inconclusive: 3.4% |
| CS(=O)(=O)N1CCN=C1SCc1ccc(Br)cc1 | inactive: 7.8% |

Among those listed so far, these contain a CF3 group.

| Structure (SMILES) | inhibition |
| --- | --- |
| COC(=O)c1cnc(Nc2cccc(C(F)(F)F)c2)c([N+](=O)[O-])c1 | inconclusive: 49.2% |
| Cc1cc(-c2nc(C)c(C(=O)NNS(=O)(=O)c3cccc(C(F)(F)F)c3)s2)no1 | inconclusive: 10.2% |

Further records.

| Structure (SMILES) | inhibition |
| --- | --- |
| Cc1nnsc1-c1onc(C)c1C(=O)O/N=C/c1ccc(Cl)cc1 | inconclusive: 37.9% |
| CCC(C)(C)C1CCC2(CC1)NC(=S)N(c1ccccc1)N2 (stereo not drawn) | inconclusive: 96.7% |
| O=C(c1cccc(F)c1)N1CCN(Cc2cccc(Br)c2)CC1 | inconclusive: 25.1% |
| CN(Cc1cnc2nc(N)nc(N)c2n1)c1ccc(C(=O)NC(CCC(=O)O)C(=O)O)cc1C(F)(F)F (stereo not drawn) | inactive: 2.3% |
| CCCC(=O)N1CCC1(C)C(=O)Nc1ccc(-n2cccc2)cc1 (stereo not drawn) | inactive: 1.5% |
| COc1cc2c(cc1OC)CN(C(=O)c1ccc([N+](=O)[O-])o1)CC2 | inconclusive: -106% |
| COc1ccccc1NS(=O)(=O)c1cc(NC(=O)c2sccc2C)ccc1N1CCOCC1 | inactive: -2.7% |
| Cc1ccsc1/C=N/Nc1ccc(F)cc1F | inconclusive: 18.7% |
| COC(=O)c1ccc(CNC(=O)c2sccc2-c2ccccc2)cc1 | inconclusive: -24.2% |
| COCCCNc1nnc(Cc2ccc(Cl)cc2)c(=O)[nH]1 | inconclusive: 19.8% |
| Cn1c(=O)c2c(nc(N/N=C/c3ccncc3)n2Cc2ccccc2)n(C)c1=O | inconclusive: -37.8% |
| CC1(C)CC(=O)C(C2C3=C(CC(C)(C)CC3=O)Oc3c(Br)cc(Br)cc32)=C(O)C1 (stereo not drawn) | inconclusive: 3.5% |
| O=C(NNC(=O)c1ccccc1-n1cccc1)c1ccc(Cl)c(Cl)c1 | inconclusive: 10.9% |
| O=C(NNC1CC(=O)N(c2ccc(F)cc2)C1=O)c1cccnc1 (stereo not drawn) | inconclusive: -29.2% |
| O=C(Nc1ccc(N2CCCC2)cc1)c1cc(Cl)ccc1Cl | inconclusive: -227% |
| COCc1nc2oc3ccccc3c(=O)c2cc1C(=O)OC | inconclusive: -38.7% |
| Cn1cccc1CC(=O)N/N=C/c1ccc(Cl)cc1 | inconclusive: 50.5% |
| COc1ccc(C(=O)N2CCc3ccccc3C2)cc1S(=O)(=O)N1CCCC1 | inactive: -2.4% |
| COc1ccccc1CNC(=O)CCNC(=O)Cn1cnc2ccccc2c1=O | inconclusive: 30% |
| COc1ccccc1-n1cc(-c2ccc(C)cc2)[nH]c1=S | inconclusive: -4.7% |
| Cc1[nH]c2ccccc2c(=O)c1CNCc1ccccc1 | inactive: -1.3% |
| Cc1cccc(-n2c(C)cc(C=C3C(=O)c4ccccc4C3=O)c2C)c1 | inactive: -7.2% |
| Cc1onc(-c2c(Cl)cccc2Cl)c1/C(N)=N/OC(=O)C(C)(C)C | inactive: -13.8% |
| O=C(NC1CC1)C1CCN(c2nc3ccccc3s2)CC1 | inactive: 1.3% |

| Structure (SMILES) | inhibition |
| --- | --- |
| COc1cccc(C2=CC(c3ccc(OC)c(OC)c3OC)n3nnnc3N2)c1 (stereo not drawn) | inactive: 1.1% |
| O=C1C2CCCCN2C(=O)N1CCCN1CCN(c2cccc(C(F)(F)F)c2)CC1 (stereo not drawn) | inconclusive: -4.1% |
| COc1ccccc1NC(=O)Nc1ccc(CC#N)cc1 | inconclusive: -104% |
| CCS(=O)(=O)N1N=C(c2ccc(NS(C)(=O)=O)cc2)CC1c1ccccc1 (stereo not drawn) | inactive: -24.3% |
| CCOc1ccc(C2NC(=O)NC(c3ccccc3)=C2C(C)=O)cc1OC (stereo not drawn) | inconclusive: -3.3% |
| CCOc1ccc(-c2csc(NC(=O)c3ccco3)n2)cc1 | inconclusive: -10.2% |
| O=C(Nc1ccccc1)OC1CCCCc2cccnc21 (stereo not drawn) | inconclusive: 32.4% |
| COc1ccc(-n2c(O)c(/C=C3\C=Nc4ccccc43)c(=O)[nH]c2=O)cc1 | inconclusive: 16.2% |
| COc1cc2c(c(OC)c1OC)CCc1cnoc1-2 | inconclusive: -14.9% |
| O=C(Nc1ccc(OC(F)(F)F)cc1)c1cnccn1 | inconclusive: 3% |
| COCCNc1ncnc2c1cnn2-c1ccc(Cl)cc1 | inconclusive: -6.7% |
| CCN(CC)C(=O)CSc1nnc2cc(C)c3ccccc3n12 | inactive: -6.8% |
| C/C(=N\OCC(=O)Nn1c(C)nc2ccccc2c1=O)c1cccs1 | inconclusive: -41.4% |
| Cc1ccc(C(=O)CSc2nc(O)cc(=O)[nH]2)cc1C | inconclusive: -2% |
| O=C(Nc1ccc(Cc2ccncc2)cc1)C1CCC(N2C(=O)C3C4C=CC(C4)C3C2=O)CC1 (stereo not drawn) | inactive: 7.5% |
| Cc1cc(Br)c(S(=O)(=O)NCc2cccnc2)cc1C | inconclusive: 3% |
| CCc1cc2cc3c(cc2nc1SCC(=O)Nc1nccs1)OCO3 | inactive: 16.2% |
| O=[N+]([O-])c1ccc(-c2nc(-c3ccncc3)no2)cc1 | inconclusive: -10.9% |
| OC1CCCN(Cc2nc(Cc3ccccc3Cl)no2)C1 (stereo not drawn) | inactive: 1.9% |
| O=C(c1ccccc1F)N1CCN(Cc2ccc3c(c2)OCO3)CC1 | inconclusive: 6.8% |
| CCCCCCn1c(C(C)O)nc2ccccc21 (stereo not drawn) | inconclusive: -9.3% |

An excerpt of these results, as tab-separated lines.
Structure (SMILES)	inhibition
CC(=O)COC(=O)C1=NN(c2ccccc2)C(=O)CC1	inconclusive: 6.4%
Cn1cccc1CC(=O)N/N=C/c1ccc(Cl)cc1	inconclusive: 50.5%
